PubChem BioAssay AID1259258 – Sanger Institute | 2017

Test: 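Kinase knock-downs making colon cancer cells more sensitive to BYL719, cetuximab or trametinib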 (follow-up of hits)
System: human SW48 colorectal cancer cells
Reagent: single siRNA against human genes
Treatment: anchor drug cetuximab 5 µg/ml, trametinib 10 nM or BYL719 1 µM, or DMSO vehicle alone; assay length not stated
Read-out: 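Synergy score per drug compares siRNA-plus-drug effect with each agent alone; viability, relative to non-targeting pool 2 and replicate-averaged, uses DMSO, cetuximab 5 µg/ml, trametinib 10 nM or BYL719 1 µM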
Scale: synergy score with trametinib and synergy score with BYL719 and synergy score with cetuximab: higher = stronger synergy, more killing than expected; viability with siRNA and DMSO only and viability with siRNA plus trametinib: higher = more viable cells
Call rule: 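Hit when the synergy score is above 0.10 for at least one of trametinib, BYL719 or cetuximab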
This is an unselected part of 160 reagents tested. 40 of all reagents (25%) count as active. 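Each row is one of four siRNAs per gene; a gene counts as confirmed only when several of its siRNAs show synergy.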 A number with no mark means an inactive call. Reagents against one gene are numbered here. No viability above 1 is reported: the scale is capped. Not given: the amount of reagent, the time to read-out.

| gene | reagent no. | synergy score with trametinib | synergy score with BYL719 | synergy score with cetuximab | viability with siRNA and DMSO only (fraction of control) | viability with siRNA plus trametinib (fraction of control) |
| --- | --- | --- | --- | --- | --- | --- |
| RPS6KA4 | 1 | 0.0266 | 0.0105 | -0.0233 | 1 | 0.565 |
| RPS6KA4 | 2 | 0.0634 | 0.0589 | 0.0902 | 1 | 0.528 |
| RPS6KA4 | 3 | -0.0637 | -0.0538 | -0.081 | 0.806 | 0.541 |
| RPS6KA4 | 4 | 0.0756 | 0.05 | -0.023 | 0.943 | 0.483 |
| CRIM1 | 1 | -0.00114 | -0.214 | -0.274 | 1 | 0.593 |
| CRIM1 | 2 | -0.0295 | -0.132 | -0.192 | 0.775 | 0.488 |
| CRIM1 | 3 | -0.0265 | 0.0586 | -0.0557 | 0.839 | 0.523 |
| CRIM1 | 4 | 0.0853 | -0.172 | -0.0596 | 0.835 | 0.409 |
| MAPK4 | 1 | 0.083 | -0.0118 | 0.0613 | 0.924 | 0.464 |
| MAPK4 | 2 | 0.0353 | -0.111 | -0.102 | 0.706 | 0.382 |
| MAPK4 | 3 | -0.0521 | -0.0701 | -0.127 | 0.741 | 0.491 |
| MAPK4 | 4 | 0.0298 | 0.0258 | 0.0334 | 0.52 | 0.278 |
| PIM1 | 1 | 0.13 (active) | 0.143 | 0.18 | 0.952 | 0.433 |
| PIM1 | 2 | -0.0198 | -0.00997 | -0.105 | 0.955 | 0.585 |
| PIM1 | 3 | -0.0871 | -0.0683 | -0.0117 | 0.803 | 0.562 |
| PIM1 | 4 | -0.139 | -0.0954 | -0.0504 | 0.866 | 0.651 |
| PLK1 | 1 | 0.0406 | -0.0417 | -0.00879 | 0.207 | 0.0817 |
| PLK1 | 2 | -0.0287 | -0.0512 | -0.0143 | 0.26 | 0.182 |
| PLK1 | 3 | 0.00794 | -0.0229 | -0.0118 | 0.204 | 0.113 |
| PLK1 | 4 | -0.0209 | -0.0766 | -0.00596 | 0.125 | 0.0948 |
| MPP3 | 1 | 0.0555 | 0.0535 | -0.0791 | 0.835 | 0.439 |
| MPP3 | 2 | 0.344 (active) | -0.00325 | 0.0305 | 0.992 | 0.243 |
| MPP3 | 3 | 0.192 (active) | 0.189 | -0.0267 | 0.801 | 0.281 |
| MPP3 | 4 | 0.182 (active) | 0.0401 | 0.0256 | 0.619 | 0.184 |
| PRAG1 | 1 | -0.0326 | -0.127 | -0.126 | 0.85 | 0.536 |
| PRAG1 | 2 | 0.132 (active) | 0.246 | 0.0936 | 0.959 | 0.435 |
| PRAG1 | 3 | -0.189 | -0.0707 | -0.21 | 0.844 | 0.688 |
| PRAG1 | 4 | -0.082 | -0.0753 | -0.279 | 0.972 | 0.657 |
| CDKN2D | 1 | 0.212 (active) | -0.0304 | 0.0789 | 0.833 | 0.28 |
| CDKN2D | 2 | 0.173 (active) | 0.0694 | 0.015 | 0.977 | 0.405 |
| CDKN2D | 3 | -0.0898 | -0.151 | -0.0325 | 0.86 | 0.599 |
| CDKN2D | 4 | 0.0779 | 0.0116 | -0.0482 | 0.93 | 0.472 |
| CDK6 | 1 | -0.021 | -0.0918 | -0.154 | 1 | 0.613 |
| CDK6 | 2 | 0.0323 | 0.0237 | -0.169 | 0.827 | 0.457 |
| CDK6 | 3 | 0.148 (active) | 0.0687 | 0.212 | 0.97 | 0.426 |
| CDK6 | 4 | 0.0689 | 0.029 | -0.085 | 0.934 | 0.483 |

Reformatted: results already given.
gene,reagent no.,synergy score with trametinib,synergy score with BYL719,synergy score with cetuximab,viability with siRNA and DMSO only (fraction of control),viability with siRNA plus trametinib (fraction of control)
PLK1,4,-0.0209,-0.0766,-0.00596,0.125,0.0948
MPP3,1,0.0555,0.0535,-0.0791,0.835,0.439
MPP3,2,0.344 (active),-0.00325,0.0305,0.992,0.243
